The supplement of paper PMC10849652
The list shows a part of the results.

Chains of the proteins cited; added tags and fusions are not shown. Lines headed by an entry give the natural chain unless they say otherwise; changes in a name come on top.
UniProt A4D2B0: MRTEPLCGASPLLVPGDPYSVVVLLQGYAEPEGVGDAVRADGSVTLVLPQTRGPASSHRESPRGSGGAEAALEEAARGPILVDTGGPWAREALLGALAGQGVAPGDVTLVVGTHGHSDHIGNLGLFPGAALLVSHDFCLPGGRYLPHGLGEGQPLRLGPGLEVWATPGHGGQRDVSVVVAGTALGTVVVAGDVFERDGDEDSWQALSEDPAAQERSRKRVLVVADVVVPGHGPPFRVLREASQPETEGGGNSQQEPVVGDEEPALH
UniProt Q9H7H0: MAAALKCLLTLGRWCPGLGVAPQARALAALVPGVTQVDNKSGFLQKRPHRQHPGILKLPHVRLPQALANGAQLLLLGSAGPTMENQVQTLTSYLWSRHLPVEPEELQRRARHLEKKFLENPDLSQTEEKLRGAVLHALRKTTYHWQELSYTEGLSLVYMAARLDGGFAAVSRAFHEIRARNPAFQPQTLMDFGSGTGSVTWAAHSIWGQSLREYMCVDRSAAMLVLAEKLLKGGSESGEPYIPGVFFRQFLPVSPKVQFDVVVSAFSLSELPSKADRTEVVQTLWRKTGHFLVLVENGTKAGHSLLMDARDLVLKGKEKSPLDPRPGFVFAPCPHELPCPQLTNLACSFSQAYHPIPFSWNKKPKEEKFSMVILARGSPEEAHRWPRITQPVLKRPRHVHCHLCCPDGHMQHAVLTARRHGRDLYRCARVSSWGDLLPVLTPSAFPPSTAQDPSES
UniProt Q86XA0: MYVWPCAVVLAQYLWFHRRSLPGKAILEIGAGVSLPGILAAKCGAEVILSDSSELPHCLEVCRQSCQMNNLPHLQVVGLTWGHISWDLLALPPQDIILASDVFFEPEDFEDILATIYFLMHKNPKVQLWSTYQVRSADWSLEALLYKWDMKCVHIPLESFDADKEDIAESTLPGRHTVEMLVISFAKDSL
UniProt Q9NX70: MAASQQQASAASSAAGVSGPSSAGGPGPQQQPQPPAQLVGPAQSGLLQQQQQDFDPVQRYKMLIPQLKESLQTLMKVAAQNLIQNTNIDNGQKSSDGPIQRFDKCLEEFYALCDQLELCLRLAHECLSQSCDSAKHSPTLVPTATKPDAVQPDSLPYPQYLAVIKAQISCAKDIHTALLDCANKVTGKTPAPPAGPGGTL
UniProt Q6NUT3: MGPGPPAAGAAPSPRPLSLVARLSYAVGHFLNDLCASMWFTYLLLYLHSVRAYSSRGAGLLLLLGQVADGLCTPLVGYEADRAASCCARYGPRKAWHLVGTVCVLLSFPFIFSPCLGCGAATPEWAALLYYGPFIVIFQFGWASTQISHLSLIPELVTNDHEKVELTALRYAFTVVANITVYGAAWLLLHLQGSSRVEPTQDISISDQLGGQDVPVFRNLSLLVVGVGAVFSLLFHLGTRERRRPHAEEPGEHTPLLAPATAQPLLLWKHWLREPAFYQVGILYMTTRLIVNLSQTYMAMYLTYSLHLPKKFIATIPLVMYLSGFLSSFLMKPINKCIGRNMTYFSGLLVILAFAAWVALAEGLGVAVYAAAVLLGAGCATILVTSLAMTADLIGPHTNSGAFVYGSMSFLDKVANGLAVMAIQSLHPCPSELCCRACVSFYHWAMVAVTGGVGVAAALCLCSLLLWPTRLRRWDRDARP
UniProt Q7Z7M0: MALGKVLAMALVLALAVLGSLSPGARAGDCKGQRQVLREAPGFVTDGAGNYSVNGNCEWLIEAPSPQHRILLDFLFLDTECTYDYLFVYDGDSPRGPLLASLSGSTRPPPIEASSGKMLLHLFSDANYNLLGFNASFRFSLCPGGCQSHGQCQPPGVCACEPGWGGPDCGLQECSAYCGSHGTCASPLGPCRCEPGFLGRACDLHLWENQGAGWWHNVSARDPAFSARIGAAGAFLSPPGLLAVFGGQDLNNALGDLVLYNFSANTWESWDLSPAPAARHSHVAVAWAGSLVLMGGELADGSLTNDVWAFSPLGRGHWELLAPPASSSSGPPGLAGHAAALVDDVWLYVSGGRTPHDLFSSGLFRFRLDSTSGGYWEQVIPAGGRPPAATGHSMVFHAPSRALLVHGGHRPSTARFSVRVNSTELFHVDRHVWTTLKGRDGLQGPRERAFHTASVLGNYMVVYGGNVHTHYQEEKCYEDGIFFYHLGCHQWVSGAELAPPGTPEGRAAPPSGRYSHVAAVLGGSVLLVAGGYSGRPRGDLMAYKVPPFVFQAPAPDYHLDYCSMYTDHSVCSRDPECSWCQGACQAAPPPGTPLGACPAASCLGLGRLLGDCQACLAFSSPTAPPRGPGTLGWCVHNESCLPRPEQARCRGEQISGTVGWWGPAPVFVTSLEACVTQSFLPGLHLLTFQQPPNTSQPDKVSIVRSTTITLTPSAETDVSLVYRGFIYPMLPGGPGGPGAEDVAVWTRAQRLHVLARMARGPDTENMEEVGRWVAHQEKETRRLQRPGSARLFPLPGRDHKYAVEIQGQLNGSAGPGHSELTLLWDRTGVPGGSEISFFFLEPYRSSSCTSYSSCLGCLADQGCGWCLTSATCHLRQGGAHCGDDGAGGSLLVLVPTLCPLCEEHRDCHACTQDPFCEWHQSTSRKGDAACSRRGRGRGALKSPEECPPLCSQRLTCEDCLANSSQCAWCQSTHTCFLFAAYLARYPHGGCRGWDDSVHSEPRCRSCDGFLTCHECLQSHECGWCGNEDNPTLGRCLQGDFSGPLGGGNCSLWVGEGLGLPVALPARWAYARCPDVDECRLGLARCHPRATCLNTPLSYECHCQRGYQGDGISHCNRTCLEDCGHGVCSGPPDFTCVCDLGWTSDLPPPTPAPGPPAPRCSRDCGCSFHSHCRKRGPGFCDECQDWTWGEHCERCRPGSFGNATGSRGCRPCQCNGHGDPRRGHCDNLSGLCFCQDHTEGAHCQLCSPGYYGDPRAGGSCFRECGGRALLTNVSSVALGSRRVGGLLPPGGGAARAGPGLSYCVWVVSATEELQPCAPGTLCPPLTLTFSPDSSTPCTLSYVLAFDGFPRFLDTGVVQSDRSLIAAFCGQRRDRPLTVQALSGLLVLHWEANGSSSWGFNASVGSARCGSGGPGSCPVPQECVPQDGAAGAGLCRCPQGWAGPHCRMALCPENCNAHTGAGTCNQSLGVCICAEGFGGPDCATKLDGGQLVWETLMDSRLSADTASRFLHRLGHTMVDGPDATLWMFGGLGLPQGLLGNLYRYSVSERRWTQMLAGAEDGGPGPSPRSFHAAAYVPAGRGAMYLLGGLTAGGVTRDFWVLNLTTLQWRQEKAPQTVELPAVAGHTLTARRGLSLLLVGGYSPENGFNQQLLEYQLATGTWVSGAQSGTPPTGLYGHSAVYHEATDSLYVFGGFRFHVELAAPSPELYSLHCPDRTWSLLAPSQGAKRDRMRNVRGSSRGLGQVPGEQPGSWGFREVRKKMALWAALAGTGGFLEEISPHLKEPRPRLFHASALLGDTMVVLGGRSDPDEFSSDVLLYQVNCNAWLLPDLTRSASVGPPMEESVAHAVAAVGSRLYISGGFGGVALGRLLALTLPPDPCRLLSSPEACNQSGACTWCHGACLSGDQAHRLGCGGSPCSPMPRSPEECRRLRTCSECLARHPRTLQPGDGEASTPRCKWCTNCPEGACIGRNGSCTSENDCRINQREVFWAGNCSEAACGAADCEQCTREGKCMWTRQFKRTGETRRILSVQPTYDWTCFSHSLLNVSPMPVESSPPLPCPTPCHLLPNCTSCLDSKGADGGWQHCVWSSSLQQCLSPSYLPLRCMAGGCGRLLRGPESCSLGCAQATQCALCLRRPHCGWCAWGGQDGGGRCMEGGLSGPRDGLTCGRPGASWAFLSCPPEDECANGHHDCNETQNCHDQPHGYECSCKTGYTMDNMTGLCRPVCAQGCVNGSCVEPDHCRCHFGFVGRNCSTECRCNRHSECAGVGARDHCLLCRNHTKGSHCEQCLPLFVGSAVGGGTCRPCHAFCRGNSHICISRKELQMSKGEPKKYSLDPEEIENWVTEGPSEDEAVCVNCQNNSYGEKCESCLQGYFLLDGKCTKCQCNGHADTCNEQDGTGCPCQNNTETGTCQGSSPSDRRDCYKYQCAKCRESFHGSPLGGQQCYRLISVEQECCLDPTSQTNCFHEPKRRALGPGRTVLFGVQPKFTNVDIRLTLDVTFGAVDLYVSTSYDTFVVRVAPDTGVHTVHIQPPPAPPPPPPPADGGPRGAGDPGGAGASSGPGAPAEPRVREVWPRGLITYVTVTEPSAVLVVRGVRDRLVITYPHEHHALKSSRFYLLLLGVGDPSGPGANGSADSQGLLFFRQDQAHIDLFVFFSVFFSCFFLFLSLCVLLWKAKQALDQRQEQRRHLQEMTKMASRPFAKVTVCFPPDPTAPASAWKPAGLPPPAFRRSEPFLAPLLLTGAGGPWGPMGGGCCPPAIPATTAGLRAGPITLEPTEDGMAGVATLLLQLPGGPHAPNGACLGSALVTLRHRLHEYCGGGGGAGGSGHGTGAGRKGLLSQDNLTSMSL
UniProt Q14703: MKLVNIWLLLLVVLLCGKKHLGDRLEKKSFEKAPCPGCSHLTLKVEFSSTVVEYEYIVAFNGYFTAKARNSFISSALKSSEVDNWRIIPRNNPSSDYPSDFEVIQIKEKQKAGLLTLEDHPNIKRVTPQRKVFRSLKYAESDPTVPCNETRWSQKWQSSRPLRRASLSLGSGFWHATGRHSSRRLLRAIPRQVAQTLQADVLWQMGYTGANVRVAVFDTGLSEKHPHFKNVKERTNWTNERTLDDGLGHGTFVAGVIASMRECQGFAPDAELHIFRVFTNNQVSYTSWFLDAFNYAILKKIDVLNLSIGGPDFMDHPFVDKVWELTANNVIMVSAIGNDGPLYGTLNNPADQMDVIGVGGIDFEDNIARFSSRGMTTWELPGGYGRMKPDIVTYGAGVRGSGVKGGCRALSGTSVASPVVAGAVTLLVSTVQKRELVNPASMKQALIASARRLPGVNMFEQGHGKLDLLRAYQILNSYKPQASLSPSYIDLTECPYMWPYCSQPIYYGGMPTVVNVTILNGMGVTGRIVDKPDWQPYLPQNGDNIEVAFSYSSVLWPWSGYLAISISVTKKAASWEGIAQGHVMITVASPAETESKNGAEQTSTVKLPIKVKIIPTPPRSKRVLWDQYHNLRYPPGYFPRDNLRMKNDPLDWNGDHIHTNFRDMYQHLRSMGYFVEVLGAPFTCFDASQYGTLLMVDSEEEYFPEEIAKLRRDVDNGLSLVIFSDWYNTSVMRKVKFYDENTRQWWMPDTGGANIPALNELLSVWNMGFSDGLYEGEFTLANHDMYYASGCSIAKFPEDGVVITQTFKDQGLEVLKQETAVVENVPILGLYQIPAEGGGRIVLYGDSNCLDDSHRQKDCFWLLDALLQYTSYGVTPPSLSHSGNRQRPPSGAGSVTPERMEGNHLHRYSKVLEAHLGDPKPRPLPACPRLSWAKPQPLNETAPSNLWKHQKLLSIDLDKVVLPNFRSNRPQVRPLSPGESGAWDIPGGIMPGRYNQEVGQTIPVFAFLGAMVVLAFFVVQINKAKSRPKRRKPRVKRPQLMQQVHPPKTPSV
UniProt A1L020: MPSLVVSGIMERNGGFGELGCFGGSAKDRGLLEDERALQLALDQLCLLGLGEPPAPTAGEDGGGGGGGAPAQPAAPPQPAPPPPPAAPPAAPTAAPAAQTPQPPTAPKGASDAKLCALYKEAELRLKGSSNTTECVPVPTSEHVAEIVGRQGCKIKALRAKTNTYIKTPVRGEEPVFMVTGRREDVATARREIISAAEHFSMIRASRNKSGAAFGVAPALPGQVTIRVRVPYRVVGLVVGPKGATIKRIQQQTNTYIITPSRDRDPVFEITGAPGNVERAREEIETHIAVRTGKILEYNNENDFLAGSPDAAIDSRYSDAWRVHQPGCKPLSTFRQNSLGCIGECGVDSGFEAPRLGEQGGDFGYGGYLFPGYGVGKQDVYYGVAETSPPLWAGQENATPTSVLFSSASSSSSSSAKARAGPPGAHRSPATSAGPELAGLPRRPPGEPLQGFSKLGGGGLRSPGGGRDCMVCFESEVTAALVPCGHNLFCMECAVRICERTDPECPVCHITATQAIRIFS
MCTS2P, A0A3B3IRV3, UniProt A0A3B3IRV3, whole entry, looked up: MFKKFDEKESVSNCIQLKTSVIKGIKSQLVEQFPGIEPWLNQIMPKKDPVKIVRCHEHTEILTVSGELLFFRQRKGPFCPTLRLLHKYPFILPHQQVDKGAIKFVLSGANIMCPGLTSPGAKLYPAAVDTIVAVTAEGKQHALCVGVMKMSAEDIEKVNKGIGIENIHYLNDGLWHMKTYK
UniProt Q9P086: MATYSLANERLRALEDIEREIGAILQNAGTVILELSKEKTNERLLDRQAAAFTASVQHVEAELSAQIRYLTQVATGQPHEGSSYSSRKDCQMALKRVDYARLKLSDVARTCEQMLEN
UniProt Q6UX53: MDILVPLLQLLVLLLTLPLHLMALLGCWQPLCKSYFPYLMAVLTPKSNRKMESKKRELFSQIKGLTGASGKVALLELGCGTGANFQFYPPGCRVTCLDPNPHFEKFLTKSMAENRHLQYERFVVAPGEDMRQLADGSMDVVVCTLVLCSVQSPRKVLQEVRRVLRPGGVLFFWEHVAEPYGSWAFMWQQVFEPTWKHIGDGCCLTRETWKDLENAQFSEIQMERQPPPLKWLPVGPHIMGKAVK

Legend:
Experiment in all cases: log2 fold change, soluble protein after heating vs DMSO (PISA); higher = thermal stabilisation; K562 lysate, 10 uM; active = over 0.2 and 3.5 SD of the protein, either way, in both replicates (recomputed)
lapatinib = compound: CS(=O)(=O)CCNCc1ccc(-c2ccc3ncnc(Nc4ccc(OCc5cccc(F)c5)c(Cl)c4)c3c2)o1 [lapatinib]
Procedure, shortened: (§1)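 The values are log-two fold changes in thermal stability compared with solvent controls and come from duplicates. They were obtained by TMTpro 16plex LC-MS/MS, with channel sums equalised, on the supernatant after 21,000xg for 90 min. That supernatant came from crude K562 extract at 1 mg/mL protein treated with 10 μM compound for 30 min, heated for 3 min across 48°C-58°C, pooled and brought to 0.5% NP-40 at 4°C.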

[1] = compound: C[C@H](C1=CC=C(C=C1)C(=O)NC2=C3C=CNC3=NC=C2)N
Procedure, shortened: as §1

gandotinib = compound: Cc1cc(Nc2cc(CN3CCOCC3)c3nc(C)c(Cc4ccc(Cl)cc4F)n3n2)n[nH]1 [gandotinib]
Procedure, shortened: as §1

tozasertib = compound: Cc1cc(Nc2cc(N3CCN(C)CC3)nc(Sc3ccc(NC(=O)C4CC4)cc3)n2)n[nH]1 [tozasertib]
Procedure, shortened: as §1

[2] = compound: Cc1cccc(CC(=O)N2CCc3c2ccc(-c2cn(C)c4ncnc(N)c24)c3F)n1
Procedure, shortened: as §1

[3] = compound: NC(=O)c1cnc(N[C@@H]2CCCC[C@@H]2N)nc1Nc1cccc(-n2nccn2)c1
Procedure, shortened: as §1

[4] = compound: NC1(c2ccc(-c3nc4ccn5c(=O)[nH]nc5c4cc3-c3ccccc3)cc2)CCC1
Procedure, shortened: as §1

nilotinib = compound: Cc1cn(-c2cc(NC(=O)c3ccc(C)c(Nc4nccc(-c5cccnc5)n4)c3)cc(C(F)(F)F)c2)cn1 [nilotinib]
Procedure, shortened: as §1

[5] = compound: Cc1nc(Nc2n[nH]c3c2CN(C(=O)N[C@H](CN(C)C)c2ccccc2)C3(C)C)c2sccc2n1
Procedure, shortened: as §1

[6] = compound: Cc1ncc(-c2ccnc(Nc3ccc(S(C)(=O)=O)cc3)n2)n1C(C)C
Procedure, shortened: as §1

tipifarnib = compound: Cn1cncc1[C@@](N)(c1ccc(Cl)cc1)c1ccc2c(c1)c(-c1cccc(Cl)c1)cc(=O)n2C [tipifarnib]
Procedure, shortened: as §1

crizotinib = compound: C[C@@H](Oc1cc(-c2cnn(C3CCNCC3)c2)cnc1N)c1c(Cl)ccc(F)c1Cl [crizotinib]
Procedure, shortened: as §1

duvelisib = compound: C[C@H](Nc1ncnc2nc[nH]c12)c1cc2cccc(Cl)c2c(=O)n1-c1ccccc1 [duvelisib]
Procedure, shortened: as §1

doramapimod = compound: Cc1ccc(-n2nc(C(C)(C)C)cc2NC(=O)Nc2ccc(OCCN3CCOCC3)c3ccccc23)cc1 [doramapimod]
Procedure, shortened: as §1

dasatinib = compound: Cc1nc(Nc2ncc(C(=O)Nc3c(C)cccc3Cl)s2)cc(N2CCN(CCO)CC2)n1 [dasatinib]
Procedure, shortened: as §1

[7] = compound: Cn1cc(-c2ccc3c(c2)CCN3C(=O)Cc2cccc(C(F)(F)F)c2)c2c(N)ncnc21
Procedure, shortened: as §1

quisinostat = compound: Cn1cc(CNCC2CCN(c3ncc(C(=O)NO)cn3)CC2)c2ccccc21 [quisinostat]
Procedure, shortened: as §1

[8] = compound: NC(=O)Nc1cc(-c2cccc(F)c2)sc1C(=O)N[C@H]1CCCNC1
Procedure, shortened: as §1

pictilisib = compound: CS(=O)(=O)N1CCN(Cc2cc3nc(-c4cccc5[nH]ncc45)nc(N4CCOCC4)c3s2)CC1 [pictilisib]
Procedure, shortened: as §1

bafetinib = compound: Cc1ccc(NC(=O)c2ccc(CN3CC[C@H](N(C)C)C3)c(C(F)(F)F)c2)cc1Nc1nccc(-c2cncnc2)n1 [bafetinib]
Procedure, shortened: as §1

Measured: log2 fold change

MBLAC1 (UniProt A4D2B0)
inactive: lapatinib 0.013 | [1] 0.027 | gandotinib 0.118 | tozasertib 0.122 | [2] -0.021 | [3] -0.009 | [4] 0.136

METTL17 isoform 3 (UniProt Q9H7H0)
inactive: [1] 0.096 | gandotinib 0.13 | tozasertib 0.263 | [2] -0.007 | nilotinib 0.077 | [5] -0.045 | [6] 0.019 | tipifarnib -0.043

MEN1 (UniProt O00255)
inactive: lapatinib -0.226 | crizotinib -0.051 | duvelisib -0.009 | tozasertib 0.008 | doramapimod 0.051 | nilotinib 0.287 | [5] -0.208 | dasatinib -0.144 | [6] -0.004 | [7] -0.006 | quisinostat -0.09 | tipifarnib -0.005 | [8] 0.075 | [3] 0.224 | [4] -0.033

METTL23 (UniProt Q86XA0)
inactive: lapatinib -0.188 | tozasertib -0.156 | nilotinib -0.092 | [5] -0.141 | [6] -0.08 | tipifarnib 0.07 | [3] -0.027

MBD6 (UniProt Q96DN6)
inactive: duvelisib 0.065 | dasatinib 0.035 | [7] 0.007

MED29 (UniProt Q9NX70)
inactive: crizotinib 0.012 | [1] 0.188 | duvelisib 0.414 | gandotinib -0.067 | doramapimod -0.075 | [2] -0.109 | dasatinib -0.1 | [7] 0.05 | quisinostat 0.071 | [8] -0.059 | [4] 0.061

MEX3C (UniProt Q5U5Q3)
inactive: crizotinib -0.056 | doramapimod -0.008 | nilotinib -0.076 | [5] -0.037 | [6] -0.321 | quisinostat -0.063 | tipifarnib -0.309 | [8] 0.13 | [4] 0

Random excerpt: two records from the list.
METTL23 (UniProt Q86XA0)
inactive: lapatinib -0.188 | tozasertib -0.156 | nilotinib -0.092 | [5] -0.141 | [6] -0.08 | tipifarnib 0.07 | [3] -0.027

MBD6 (UniProt Q96DN6)
inactive: duvelisib 0.065 | dasatinib 0.035 | [7] 0.007

(next part)

METAP2 isoform 2 (UniProt P50579)
inactive: [1] -0.091 | gandotinib 0.099 | tozasertib 0.049 | [2] 0.055 | nilotinib 0.042 | [5] -0.218 | [6] -0.078 | tipifarnib 0.068

MCPH1 (UniProt Q8NEM0)
inactive: crizotinib -0.047 | [1] 0.084 | gandotinib -0.086 | doramapimod -0.029 | [2] -0.15 | quisinostat 0.007 | [8] -0.056

MFSD12 isoform 3 (UniProt Q6NUT3)
inactive: lapatinib 0.033 | crizotinib -0.023 | [1] -0.238 | duvelisib 0.092 | gandotinib 0.076 | doramapimod 0.053 | [2] 0.352 | nilotinib 0.16 | [5] 0.074 | dasatinib -0.032 | [6] 0.204 | [7] -0.077 | quisinostat -0.161 | tipifarnib -0.363 | [8] 0.125 | [3] -0.156 | [4] 0.011

MDM1 (UniProt Q8TC05)
inactive: lapatinib -0.004 | duvelisib 0.05 | gandotinib 0.336 | tozasertib 0.083 | nilotinib -0.073 | [5] -0.008 | dasatinib 0.015 | [6] -0.149 | [7] 0.056 | tipifarnib 0.006 | [3] -0.005 | [4] 0.061
active: [1] -1.42 | [2] 0.554

MFAP3 (UniProt P55082)
inactive: crizotinib 0.079 | [1] -0.005 | duvelisib 0.171 | gandotinib 0.087 | doramapimod 0.114 | [2] 0.081 | dasatinib 0.074 | [7] -0.064 | quisinostat 0.182 | [8] -0.012 | [4] 0.183

MEGF8 (UniProt Q7Z7M0)
inactive: pictilisib -0.015 | crizotinib 0.113 | [1] -0.077 | duvelisib -0.167 | gandotinib -0.101 | tozasertib 0.02 | doramapimod -0.028 | bafetinib 0.068 | [2] -0.011 | dasatinib -0.059 | [7] -0.003 | quisinostat 0.047 | [8] -0.073 | [4] -0.073

MEIOB isoform 2 (UniProt Q8N635)
inactive: [1] 0.112 | duvelisib 0.19 | gandotinib -0.045 | [2] 0.012 | nilotinib -0.032 | [5] 0.369 | dasatinib -0.192 | [6] 0.049 | [7] -0.002 | tipifarnib -0.181

MED24 (UniProt F5H5K2)
inactive: nilotinib 0.047 | [5] 0.122 | [6] 0.11 | tipifarnib 0.056

MFSD14B (UniProt Q5SR56)
inactive: crizotinib -0.201 | [1] 0.004 | gandotinib 0.016 | tozasertib -0.01 | doramapimod 0.016 | [2] 0.052 | nilotinib 0.124 | [5] 0.084 | [6] 0.024 | quisinostat -0.2 | tipifarnib -0.198 | [8] 0.027 | [4] -0.055

MCRS1 isoform 2 (UniProt Q96EZ8)
inactive: pictilisib -0.079 | [1] -0.009 | gandotinib -0.083 | bafetinib -0.106 | [2] -0.131

MCFD2 isoform 2 (UniProt Q8NI22)
inactive: lapatinib -0.024 | [3] -0.158

MBTPS1 (UniProt Q14703)
inactive: pictilisib 0.012 | crizotinib -0.008 | [1] 0.114 | duvelisib -0.006 | gandotinib -0.164 | tozasertib -0.009 | doramapimod 0.01 | bafetinib -0.001 | [2] -0.15 | dasatinib 0.106 | [7] -0.101 | quisinostat -0.053 | [8] 0.026 | [4] -0.045

MEX3A (UniProt A1L020)
inactive: duvelisib 0.196 | nilotinib 0.026 | [5] -0.069 | dasatinib -0.029 | [6] -0.137 | [7] -0.084 | tipifarnib 0.211

MCEMP1 (UniProt Q8IX19)
inactive: lapatinib -0.185 | crizotinib 0.166 | duvelisib -0.038 | doramapimod 0.052 | dasatinib 0.166 | [7] 0.064 | quisinostat 0.023 | [8] 0.056 | [3] 0.109

MBTD1 (UniProt Q05BQ5)
inactive: crizotinib -0.131 | doramapimod 0.128 | quisinostat -0.048 | [8] 0.088

MED9 (UniProt Q9NWA0)
inactive: lapatinib -0.103 | crizotinib 0.188 | [1] 0.049 | duvelisib 0.066 | gandotinib -0.092 | doramapimod -0.093 | [2] -0.113 | nilotinib -0.251 | [5] 0.065 | dasatinib 0.039 | [6] 0.007 | [7] -0.076 | quisinostat 0.151 | tipifarnib 0.149 | [8] -0.045 | [3] -0.115

MFSD9 (UniProt Q8NBP5)
inactive: duvelisib -0.006 | dasatinib 0.017 | [7] -0.06

MBTPS2 (UniProt O43462)
inactive: crizotinib 0.03 | tozasertib -0.101 | doramapimod 0.033 | quisinostat -0.211 | [8] -0.064

MCTS2P, A0A3B3IRV3
inactive: lapatinib 0.203 | crizotinib 0.027 | duvelisib -0.132 | doramapimod -0.011 | dasatinib 0.188 | [7] -0.196 | quisinostat 0.024 | [8] 0.048 | [3] 0.122 | [4] 0.036

MED11 (UniProt Q9P086)
inactive: pictilisib -0.06 | crizotinib -0.019 | duvelisib -0.256 | doramapimod 0.008 | bafetinib -0.203 | dasatinib -0.149 | [7] 0.11 | quisinostat -0.042 | [8] 0.084 | [4] 0.095

MDM4 (UniProt O15151)
inactive: crizotinib -0.004 | [1] 0.013 | duvelisib 0.107 | gandotinib 0.051 | tozasertib 0.074 | doramapimod 0.013 | [2] 0.004 | dasatinib -0.12 | [7] -0.145 | quisinostat 0.157 | [8] -0.005

MEIS1 (UniProt O00470)
inactive: pictilisib 0.141 | crizotinib -0.006 | [1] 0.151 | gandotinib 0.082 | tozasertib -0.12 | doramapimod -0.099 | bafetinib 0 | [2] -0.177 | quisinostat 0.009 | [8] 0.001

MEGF9 (UniProt Q9H1U4)
inactive: pictilisib 0.04 | [1] 0.181 | duvelisib -0.094 | gandotinib -0.051 | tozasertib -0.235 | bafetinib 0.083 | [2] -0.093 | dasatinib -0.03 | [7] -0.046 | [4] 0.181

MBNL2 (UniProt Q5VZF2)
inactive: lapatinib -0.033 | crizotinib 0.024 | [1] -0.076 | gandotinib 0.044 | tozasertib -0.098 | doramapimod 0.045 | [2] -0.238 | quisinostat -0.013 | [8] 0.022 | [3] -0.108 | [4] -0.128

MELTF (UniProt P08582)
inactive: pictilisib -0.037 | crizotinib -0.015 | [1] -0.096 | gandotinib -0.083 | tozasertib -0.118 | doramapimod 0.154 | bafetinib 0.052 | [2] -0.079 | quisinostat 0.046 | [8] -0.134 | [4] 0.002

METTL7B (UniProt Q6UX53)
inactive: [4] -0.005
